Experimental data taken from PubChem BioAssay AID2685 (National Center for Advancing Translational Sciences (NCATS), 2010).
This is one part of the list. Further columns of the screen follow, without active or inactive calls. Most of these compounds were active or inconclusive in the main read-out, so they are no random draw. The note in brackets gives the kind of curve behind each potency; many fits are weak.

Assay: qHTS Assay for Lipid Storage Modulators in Drosophila S3 Cells;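 on cell number change: cells counted by Cell Tracker Red CMTPX staining in the red channel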
Conditions: BODIPY lipid droplet fluorescence, 18-24 h; for cell number change: measured here: cell count max response, cells fed with added oleic acid
Outline: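 Laser-scanning cytometry quantifies lipid droplet accumulation (500–530 nm total intensity; droplet/cell object ratio) in oleic acid-fed (400 uM added) Drosophila S3 cells treated with a concentration series. 20 uM Triacsin C defined 100% inhibition.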

[1] = measured here: lipid fluorescence (Fed channel) AC50, cells fed with added oleic acid
[2] = measured here: cell number channel AC50, cells fed with added oleic acid

Structure (SMILES): Cc1nnc(NC(=O)c2cc(S(=O)(=O)N(C)C)ccc2N2CCCC2)s1
- cell number change: 15.4%
- AC50 [1]: 29.1 µM [rising, single point]

Structure (SMILES): O=C(c1ccc(Cl)cc1)c1cnc2ccccn12
- AC50 [2]: 6.51 µM [rising, single point]
- AC50 [1]: 4.61 µM [rising, full curve, poor fit]

Structure (SMILES): Oc1cc(-n2cccn2)c(O)cc1-n1cccn1
- cell number change: -51.7%
- AC50 [2]: 0.0058 µM [falling, full curve, poor fit]

Structure (SMILES): Cc1cc(C)n(-c2ccc(C(=O)Nc3cccc([N+](=O)[O-])c3)cc2)n1
- cell number change: -2.62%
- AC50 [1]: 6.51 µM [falling, single point]

Structure (SMILES): CCN1CCN(CC2CC3C=CC2C3)CC1 (stereo unspecified)
- AC50 [1]: 6.51 µM [rising, single point]

Structure (SMILES): Cc1ncc(N=Nc2ccccc2)c(-c2ccccc2)n1
- cell number change: -28.3%
- AC50 [1]: 20.6 µM [falling, partial curve]

Structure (SMILES): Cc1cc(C(=O)CCC(=O)NNC(=O)c2ccccc2O)c(C)s1
- cell number change: 2.94%
- AC50 [1]: 0.164 µM [falling, full curve, poor fit]

Structure (SMILES): O=C(CN1C(=O)c2ccccc2S1(=O)=O)NCCSCc1cccc(Cl)c1
- cell number change: 9.21%

Structure (SMILES): Cc1csc(NC(=O)C2CCN(S(=O)(=O)c3cccs3)CC2)n1
- cell number change: 34.3%
- AC50 [2]: 18.4 µM [rising, single point]
- AC50 [1]: 29.1 µM [rising, single point]

Structure (SMILES): CN(c1ccccc1)S(=O)(=O)c1cccc(C(=O)NCc2ccccc2)c1
- cell number change: 22.4%
- AC50 [1]: 14.6 µM [falling, partial curve]

Structure (SMILES): O=C(NC1CCCCC1NC(=O)c1cccs1)c1cccs1 (stereo unspecified)
- cell number change: 9.65%

Structure (SMILES): CCOC(=O)CCCc1ccc(/C(C)=N/NC(=S)NC)cc1
- cell number change: -4.34%
- AC50 [1]: 3.26 µM [falling, single point]

Structure (SMILES): CC(C)(C)c1ccc(OCC(=O)NNC(=O)c2cccnc2)cc1
- cell number change: 0.249%
- AC50 [1]: 6.51 µM [falling, single point]

Structure (SMILES): CCc1cccc(NC(=O)c2cccc3c2C(=O)N(CC2CCCO2)C3)c1 (stereo unspecified)
- cell number change: -12.7%
- AC50 [1]: 11.6 µM [falling, single point]

Structure (SMILES): CSc1nc2ccccc2c(=O)n1C1CCCCC1
- cell number change: 18.3%
- AC50 [2]: 0.291 µM [rising, full curve]
- AC50 [1]: 29.1 µM [rising, single point]

Structure (SMILES): COc1ccc(-c2nn(-c3ccccc3)cc2C(=O)Nc2ccc(C(=O)O)cc2)cc1OC
- cell number change: 2.56%
- AC50 [1]: 29.1 µM [falling, single point]

Structure (SMILES): O=C(NCC1CCS(=O)(=O)C1)Oc1ccccc1 (stereo unspecified)
- cell number change: -11.5%

Structure (SMILES): Cc1ccc(C)c(OCCC(=O)N2CCN(S(=O)(=O)c3cc(C)ccc3C)CC2)c1
- cell number change: 41.9%
- AC50 [2]: 4.61 µM [rising, full curve, poor fit]
- AC50 [1]: 1.03 µM [rising, partial curve]

Structure (SMILES): O=C(NC(=S)NCCCN1CCOCC1)c1ccc(Br)cc1
- cell number change: -29.7%
- AC50 [1]: 0.731 µM [falling, full curve]

Structure (SMILES): COc1cccc(/C=N/NC(=O)c2cc3c(OC)c(OC)ccc3[nH]2)c1OC
- cell number change: -2.73%
- AC50 [1]: 1.64 µM [rising, partial curve]

Structure (SMILES): COc1ccc(-n2nc(C(=O)NCC(=O)NCCC3=CCCCC3)c3ccccc3c2=O)cc1OC
- cell number change: -40.5%
- AC50 [2]: 0.206 µM [falling, full curve]

Structure (SMILES): Cc1ccccc1OCC(=O)N/N=C/c1cccc2cccnc12
- cell number change: -20.2%
- AC50 [1]: 16.4 µM [falling, partial curve]

Structure (SMILES): Cc1sc2c(=O)n3c(nc2c1C(=O)NCCCN1CCOCC1)CCCCC3
- cell number change: 9.52%
- AC50 [1]: 14.6 µM [rising, partial curve]

Structure (SMILES): COc1ccc(C(=O)NC(=S)Nc2ccc3oc(=O)ccc3c2)cc1
- cell number change: -16.6%

Structure (SMILES): COc1ccc(Br)cc1S(=O)(=O)N(CC(=O)N1CCN(C)CC1)c1ccccc1
- cell number change: -54.2%
- AC50 [2]: 14.6 µM [falling, single point]

Structure (SMILES): COc1ccccc1NS(=O)(=O)c1cccc(NC(=O)c2sc3ccccc3c2Cl)c1
- cell number change: -41.3%

Structure (SMILES): Cc1ccc(CNC(=O)CN2CCC(C(N)=O)CC2)cc1
- cell number change: -2.27%
- AC50 [2]: 0.116 µM [falling, full curve, poor fit]

Structure (SMILES): NC(=O)c1nn(CC(=O)Nc2cccc(S(=O)(=O)N3CCCC3)c2)c(=O)c2ccccc12
- cell number change: -6.18%
- AC50 [1]: 0.00461 µM [falling, full curve, poor fit]

Structure (SMILES): COc1ccc(OC)c(/C=C2\Oc3cc(OCC(=O)N4CCC[C@H]4C(=O)O)ccc3C2=O)c1
- cell number change: 32.7%
- AC50 [2]: 32.6 µM [rising, single point]
- AC50 [1]: 23.1 µM [rising, single point]

Structure (SMILES): Cc1cccc(N(CC(=O)O)CC(=O)O)c1
- cell number change: -2.28%

Structure (SMILES): O=C(CCN1C(=O)/C(=C/c2cccs2)SC1=S)N1CCCCC1
- cell number change: 46.1%
- AC50 [2]: 2.59 µM [rising, full curve]

Structure (SMILES): O=c1[nH]cc(N(CCO)CCO)c(=O)[nH]1
- cell number change: 45.4%
- AC50 [2]: 29.1 µM [rising, single point]

Structure (SMILES): CN(C)C(=O)C[n+]1ccc(/C=N/O)cc1
- cell number change: 0.247%
- AC50 [1]: 0.731 µM [rising, partial curve, poor fit]

Structure (SMILES): COc1cc(/C=C/C(=O)Nc2ccncc2)cc(OC)c1OC
- cell number change: 20.7%
- AC50 [1]: 1.46 µM [rising, partial curve]

Structure (SMILES): CC(C)(C)NC(=O)CSc1nc2ccc(NC(=O)CSc3nnc(N)s3)cc2s1
- AC50 [1]: 16.4 µM [falling, partial curve]

Structure (SMILES): CSc1nc(N2CCCC2)c2c(c1C#N)CC(C)(C)OC2
- cell number change: -10.6%
- AC50 [1]: 0.206 µM [falling, full curve, poor fit]

Structure (SMILES): COCCC(=O)N1CCCC(C(=O)c2ccc(Oc3ccccc3)cc2)C1 (stereo unspecified)
- cell number change: -15%
- AC50 [1]: 29.1 µM [falling, single point]

Structure (SMILES): Cc1cccc(NC(=O)Nc2ccc(S(=O)(=O)Nc3onc(C)c3C)cc2)c1
- cell number change: -11.1%
- AC50 [1]: 20.6 µM [rising, single point]

Structure (SMILES): Cc1ccc(S(=O)(=O)N2CCCC(C(=O)Nc3ccc(C(=O)O)cc3)C2)cc1Cl (stereo unspecified)
- cell number change: 55.3%
- AC50 [2]: 18.4 µM [rising, single point]

Structure (SMILES): O=C(NCCN1CCCCC1)c1ccc(/C=N/O)nc1
- cell number change: -18.6%

Structure (SMILES): COc1ccc(-c2noc(CCC(=O)NC3CCCCC3)n2)cc1OC
- cell number change: 12.4%

Structure (SMILES): Fc1cc(F)cc(Nc2nc(Cl)nc(NC3CCCC3)n2)c1
- cell number change: -75.5%
- AC50 [2]: 5.17 µM [falling, single point]
- AC50 [1]: 13 µM [falling, single point]

Structure (SMILES): Cc1nc2oc(C(=O)c3ccc(Br)cc3)c(N)c2c2c1COC(C)(C)C2
- cell number change: -5.82%
- AC50 [1]: 18.4 µM [rising, single point]

Structure (SMILES): CCN(CC(=O)Nc1ccc2c(c1)OCO2)S(=O)(=O)c1ccccc1
- cell number change: -3.36%
- AC50 [1]: 6.51 µM [rising, single point]

Structure (SMILES): CCNC(=S)N(CCc1c(C)[nH]c2ccc(C)cc12)Cc1ccco1
- AC50 [1]: 29.1 µM [rising, single point]

Structure (SMILES): Cc1cc(OCC(=O)NNC(=O)c2cccnc2)cc(C)c1Cl
- cell number change: 36.3%
- AC50 [2]: 29.1 µM [rising, single point]

Structure (SMILES): Nc1nc(Nc2cccc(Cl)c2)nc(NCc2ccco2)c1[N+](=O)[O-]
- cell number change: -34.9%
- AC50 [2]: 20.6 µM [falling, single point]
- AC50 [1]: 16.4 µM [falling, single point]

Structure (SMILES): CSc1ccccc1NC(=O)CN1C(=O)C2CC=CCC2C1=O (stereo unspecified)
- cell number change: -15.6%
- AC50 [2]: 6.51 µM [falling, single point]
- AC50 [1]: 6.51 µM [falling, single point]

Structure (SMILES): Cn1c(=O)c2c(nc(NNC(=O)C(F)(F)F)n2C)n(C)c1=O
- cell number change: 31.4%
- AC50 [1]: 14.6 µM [rising, partial curve]

Structure (SMILES): O=C(CNC(=O)N1CC(=O)Nc2ccccc21)Nc1nccs1
- cell number change: 8.02%
- AC50 [1]: 20.6 µM [rising, partial curve]

Structure (SMILES): O=C1c2ccccc2C(=O)N1CCSc1n[nH]c(=S)s1
- AC50 [1]: 6.51 µM [falling, single point]

Structure (SMILES): CC1CCC2(CC1)NC(=O)N(NC(=O)c1cc3ccccc3o1)C2=O (stereo unspecified)
- cell number change: 5.35%
- AC50 [1]: 1.84 µM [rising, full curve, poor fit]

Structure (SMILES): COc1ccc(N(C(=O)CNS(=O)(=O)c2ccccc2)C(C(=O)NCc2ccco2)C(C)C)cc1 (stereo unspecified)
- cell number change: -8.55%
- AC50 [1]: 6.51 µM [falling, full curve, poor fit]

Structure (SMILES): CSc1ccc(/C=N/NC(=O)c2cccs2)cc1
- cell number change: 16.8%
- AC50 [1]: 1.64 µM [rising, partial curve, poor fit]

Structure (SMILES): O=C(O)COc1c(F)c(F)c(C(F)(F)F)c(F)c1F
- cell number change: 26%
- AC50 [2]: 0.92 µM [rising, full curve, poor fit]

Structure (SMILES): COc1ccc2c(c1)OC[C@H]1[C@H]2N2C(=O)CN(Cc3ccco3)C(=O)[C@@]2(C)[C@H]1c1ccccc1
- cell number change: 3.75%
- AC50 [1]: 0.103 µM [rising, full curve, poor fit]

Structure (SMILES): CC(OC(=O)CN1C(=O)NC2(CCCC2)C1=O)C(=O)Nc1cccc(Cl)c1 (stereo unspecified)
- cell number change: -25.8%
- AC50 [1]: 25.9 µM [falling, single point]

Structure (SMILES): O=C(CSc1nnc2c3ccccc3c3ccccc3c2n1)Nc1ccccc1
- cell number change: -1.24%

Structure (SMILES): Cc1ccc(C)c(NC(=O)CN(C)C(=O)c2ccc(-c3cccc(C(F)(F)F)c3)o2)c1
- AC50 [2]: 0.461 µM [rising, full curve]

Structure (SMILES): CCOC(=O)C1CCCN(c2ncnc3c2cnn3-c2ccc(Cl)cc2)C1 (stereo unspecified)
- cell number change: 80.1%

Structure (SMILES): O=C(CSc1nc(-c2ccccc2)cc(C(F)(F)F)n1)N1CCOCC1
- cell number change: -8.99%

Structure (SMILES): CCOC(=O)C(C(C)=O)C(c1ccc(OC)cc1)C(C(C)=O)C(=O)OCC (stereo unspecified)
- AC50 [1]: 0.116 µM [falling, full curve, poor fit]

Structure (SMILES): CC(C)C(=O)N1CCN(c2nc(-c3ccccc3)c3c(c2C#N)CCCC3)CC1
- cell number change: 9.97%
- AC50 [1]: 1.16 µM [falling, full curve]
